In the supplement of paper PMC5407854, “Inhibitor of ppGalNAc-T3-mediated O-glycosylation blocks cancer cell invasiveness and lowers FGF23 levels” (eLife, 2017):
The other results are listed elsewhere or left out. Most entries show no effect beyond the scatter of the controls.

These compounds were tested on ppGalNAc-T3 sensor (assay: T3 sensor activation Q score (MG/GFP ratio z-score vs DMSO controls) (SD units); higher = more sensor activation (inhibition of ppGalNAc-T3 glycosylation)). Conditions: HEK293 sensor cells; 10 µM; 6 h.
Protocol: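 Cells were treated with compound at 10 uM for 6 h, then MG/GFP ratio was read by flow cytometry (10,000 cells per well, duplicate wells). Q = (R - R_neg)/SD_neg relative to DMSO vehicle controls; the signal rises when the glycosyltransferase is inhibited.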

Compound | T3 sensor activation Q score
CCN(C(=O)c1ccc(-c2ccccc2)cc1)c1ccccc1 | -0.165
CN(C)C1=C(Nc2ccc(F)c(F)c2)C(=O)c2ccccc2C1=O | -0.225
O=[N+]([O-])c1ccc(CN2CCN(Cc3ccccc3)CC2)o1 | 0.25
Cc1nc2ccc(C(=O)O)cc2[nH]1 | -0.14
O=C1c2ccc(Br)cc2C(=O)N1CCO | -0.485
CCc1ccccc1NC(=O)C(C)N1C(=O)c2ccccc2C1=O (configuration not stated) | 0.145
O=C(Nc1ccc(-c2ccccc2)cc1)c1ccco1 | -1.43
Cc1cc(C)cc(C(c2ccccc2)C2([N+](=O)[O-])C(=O)c3ccccc3C2=O)c1 (configuration not stated) | 0.45
O=C(c1ccc(Br)cc1)N1CCC(Cc2ccccc2)CC1 | -0.165
O=C(NCCCO)c1ccc(Cl)cc1 | -0.425
Cc1cccc(C)c1NC(=O)Nc1ccc(Cl)cc1 | 0.375
Cc1ccc(S(=O)(=O)NC(C)C)cc1[N+](=O)[O-] | -0.59
O=S(=O)(c1ccccc1)c1ccc(N2CCCCC2)cc1 | 1.25
OC(C#CCN1CCCCC1)c1ccccc1 (configuration not stated) | -0.395
Cc1ccc(C)c(CN2CCN(Cc3ccc4c(c3)OCO4)CC2)c1 | 0.9
Cc1cccc(C(=O)Nc2ccc(C(C)C)cc2)c1 | 0.51
Cc1ccccc1OCC(=O)Nc1ccc(F)cc1 | 1.4
COc1ccc2c(c1C)CCC(C1(O)C(=O)Nc3ccccc31)C2=O (configuration not stated) | 0.235
O=C(O)c1ccc(Cl)c(S(=O)(=O)N2CCOCC2)c1 | -0.055
Fc1ccc(CN2CCOCC2)cc1 | -0.16
C[C@H](NC(=O)Cc1ccccc1)c1ccccc1 | 0.35
C(=C\c1ccccc1)/CN1CCN(c2ncccn2)CC1 | 0.71

Ordered by molecular weight (largest number first): three of the compounds above.
Compound | T3 sensor activation Q score
O=S(=O)(c1ccccc1)c1ccc(N2CCCCC2)cc1 | 1.25
C(=C\c1ccccc1)/CN1CCN(c2ncccn2)CC1 | 0.71
Cc1nc2ccc(C(=O)O)cc2[nH]1 | -0.14
